Laboratory results from article PMC6297355.
No constants are given. Whether binding was seen depends on the method and setting.

By UniProt entry, the sequences of proteins in these tests, tags left out. Where a name states a change or a piece, a line headed by the entry shows the natural chain unless it says otherwise.
UniProt O95817: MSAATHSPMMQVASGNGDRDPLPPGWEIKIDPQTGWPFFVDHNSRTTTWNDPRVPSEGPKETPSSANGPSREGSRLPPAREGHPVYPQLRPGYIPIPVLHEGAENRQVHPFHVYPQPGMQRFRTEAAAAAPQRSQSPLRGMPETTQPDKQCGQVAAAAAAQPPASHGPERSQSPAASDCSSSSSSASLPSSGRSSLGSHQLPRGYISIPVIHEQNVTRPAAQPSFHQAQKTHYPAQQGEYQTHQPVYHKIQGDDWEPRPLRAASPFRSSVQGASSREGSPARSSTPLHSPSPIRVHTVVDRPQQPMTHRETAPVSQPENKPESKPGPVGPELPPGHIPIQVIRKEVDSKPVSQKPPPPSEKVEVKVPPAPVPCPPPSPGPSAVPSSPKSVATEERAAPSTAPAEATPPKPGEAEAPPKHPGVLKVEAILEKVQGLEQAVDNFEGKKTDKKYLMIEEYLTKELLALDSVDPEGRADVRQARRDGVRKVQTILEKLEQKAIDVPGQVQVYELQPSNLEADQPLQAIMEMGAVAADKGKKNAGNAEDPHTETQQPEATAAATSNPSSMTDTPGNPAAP

Legend:
Test in all cases: SEC-MALS; 30 µM BAG3 solutions separated on Shodex 804, in-line DAWN HELEOS and Optilab rEX detectors; both purified
[1] = biological target: BAG3^P209A (recombinant) (human) (UniProt O95817)
[2] = biological target: BAG3^P209D (recombinant) (human) (UniProt O95817)
[3] = biological target: BAG3^P209G (recombinant) (human) (UniProt O95817)
[4] = biological target: BAG3^P209K (recombinant) (human) (UniProt O95817)

## BAG3^P209A (recombinant) (from UniProt O95817 1-575)
[1]
  binding: no binding

## BAG3^P209D (recombinant) (from UniProt O95817 1-575)
[2]
  binding: no binding

## BAG3^P209G (recombinant) (from UniProt O95817 1-575)
[3]
  binding: no binding

## BAG3^P209K (recombinant) (from UniProt O95817 1-575)
[4]
  binding: no binding
